# Measurements: PubChem BioAssay (NCATS)
# Inconclusive means that the source gave no clear call. Such entries were picked first, then a sample of the others. A potency beside an inconclusive call is a rough fit, not a confirmed value. Active and inactive are the calls of the source. The call rests on the fitted dose curve; in most records, active means well fitted cell-killing curve with a large enough effect; inconclusive means small, poorly fitted or top-dose-only effect; inactive means flat fitted curve, though single readings scatter.
# Test: Quantitative highthroughput screen to assess conditional lethalithy of P12 Ichikawa cells grown in Human Plasma-Like Medium with dialyzed fetal bovine serum (HPLM+ds) (AID 1963879); further: nearly all actives have a fitted effect of over 35% in size
# Conditions: ATP luminescence, 48 h; Potency: viability; series mostly up to 45.8 µM
# Source text: Assay Provider: Jason Cantor Ph.D.
# Department of Biochemistry
# University of Wisconsin-Madison, Madison, WI, USA
# Chemical screening studies have identified drug sensitivities across hundreds of cancer cell lines but most putative therapeutics fail to translate. Discovery and development of drug candidates in models that more accurately reflect nutrient levels in human blood is a major challenge. Here we performed high-throughput screens in conventional versus Human Plasma-Like Medium (HPLM) to identify compounds that were "missed" when screening using the artificial culture condition. Sets of conditional anticancer compounds spanned phases of clinical development and included non-oncology drugs were assessed. […] We also traced conditional phenotypes for several chemotherapeutics to availability of HPLM-specific metabolites and confirmed others for compounds whose reported targets are encoded by nonessential genes. Our findings establish generalizable strategies for exploiting conditional lethality in HPLM to reveal therapeutic candidates and mechanisms of action in cancer cells.
# Described herein are the results of each viability screens against three cell lines: NOMO1 (an acute myeloid leukemia cell line); P12-Ichikawa (a T-cell acute lymphoblastic leukemia); and SEM (a B-cell ALL). Each assay was screened using 3 different cell culture media: homemade human plasma-Like medium with 10% dialyzed fetal bovine serum (HPLM+ds); RPMI1640 with 10% untreated FBS and 5mM glucose (RPMI+s); and RPMI1640 with 10% dialyzed fetal bovine serum and 5 mM glucose (RPMI+ds).
# PROTOCOL TABLE (as described by Inglese J, Shamu CE and Guy RK. 2007)
# SEQUENCE No. (e.g., 1, 2, 3, etc.); […] (e.g., Cells, Incubation, Reagent, etc.); VALUE and DESCRIPTION.
# 1; Cells; 5 uL; white, solid bottom 1536-well Greiner assay plate.
# 2; Compounds; 23 nL; Kalypsis pin tool (Wako USA) equipped with a 1536-well pin head to transfer to the assay plates.
# 3; Incubation; 48 hours; 37C incubation.
# 4; Reagent; 3 uL; CellTiter Glo (Promega).
# 5; Incubation; 5 min, room temperature
# 6; Detection; Luminescence, Viewlux PerkinElmer.
# NOTES (numbers refer to Sequence numbers above)
# 1. Briefly, 5 ul of cell reagent was dispensed using a Multidrop Combi Dispenser. The NOMO1 and SEM cells were plated at 500 cells/well and the P12-Ichikawa line at 1000 cells/well.
# 2. After seeding the cells, 23 nL of MIPE 4.1 library compounds (in DMSO) were added to each plate using a Kalypsys 1536 Pintool dispenser. Bortezomib at final concentration of […] and DMSO were added to each plate as positive and negative controls respectively. For each screen, MIPE 4.1 compounds were added over an eleven-point concentration range […] in 3-fold dilutions.
# 3. Each plate was covered with a stainless steel gasketed lid to prevent evaporation and incubated for 48 hour at 37C, 95% relative humidity, and 5% CO2.
# 4-5. Three microliter CellTilter-GloTM luminescent substrate mix (Promega) reagent was added to the assay plate and incubated at room temperature for 5 min.
# 6. The luminescence signal was measured using a ViewLux (PerkinElmer) multiplate reader with a 2 second exposure time per plate. Data for each compound were normalized as percent viability such that measurements for DMSO and the empty well controls in each plate were defined as 100% and 0%, respectively.
# Potency means the concentration at half of the fitted maximal effect.
row,Compound,Potency
1,CC(Oc1ccc(O)cc1)(P(=O)(O)O)P(=O)(O)O,"inconclusive: 16.6 µM [cytotoxic, partial curve]"
2,CC(=O)NCCC(=O)N[C@@H](CCC(N)=O)C(=O)N[C@@H](CO)C(=O)N[C@@H](CCC(N)=O)C(=O)N[C@@H](CCC(N)=O)C(=O)N[C@H](C(=O)N[C@@H](Cc1ccccc1)C(=O)N[C@]1(C)CCCCCCC=CCCC[C@@](C)(C(=O)N[C@@H](CCC(N)=O)C(=O)N[C@@H](CC(N)=O)C(N)=O)NC(=O)[C@H](CC(C)C)NC(=O)[C@H](CC(C)C)NC(=O)[C@@H](CCCNC(=N)N)NC(=O)[C@H](Cc2c[nH]c3ccccc23)NC(=O)[C@H](CC(C)C)NC(=O)[C@H](CC(N)=O)NC1=O)[C@H](C)O,"inconclusive: 23.5 µM [cytotoxic, partial curve, poor fit]"
3,COc1cc(C)c(Sc2cnc(NC(=O)c3ccc(CNC(C)C(C)(C)C)cc3)s2)cc1C(=O)N1CCN(C(C)=O)CC1 (stereo not given),"inconclusive: 29.6 µM [cytotoxic, single point]"
4,COc1cc2c(Oc3ccc4[nH]c(C)cc4c3F)ncnc2cc1OCCCN1CCCC1,"inconclusive: 33.2 µM [cytotoxic, single point]"
5,CC[C@@H]([C@H](C)O)n1ncn(-c2ccc(N3CCN(c4ccc(OCC5CO[C@@](Cn6cncn6)(c6ccc(F)cc6F)C5)cc4)CC3)cc2)c1=O (stereo not given in full),inactive
6,Cc1cc(C)c(CNC(=O)c2cc(-c3ccc(CN4CCOCC4)cc3)cc3c2cnn3C2CCCC2)c(=O)[nH]1,"inconclusive: 33.1 µM [cytotoxic, single point]"
7,CCn1cc(C(=O)O)c(=O)c2cc(F)c(N3CCN(C)CC3)cc21,"inconclusive: 5.9 µM [cytotoxic, full curve, poor fit]"
8,CC1(O)CC(c2nc(-c3ccc4ccc(-c5ccccc5)nc4c3)c3c(N)nccn23)C1 (stereo not given),active: 7.43 µM
9,CCOC(=O)[C@@]1(CCCCCCOc2ccc(Cl)cc2)CO1,"inconclusive: 29.5 µM [cytotoxic, single point]"
10,CC1(C)C(N(O)C(=O)Nc2ccc(Cl)cc2)N(c2ccc(Cl)cc2)C(=O)N1CC(=O)NN=CC=Cc1ccc([N+](=O)[O-])o1 (stereo not given),"inconclusive: 37.2 µM [cytotoxic, single point]"
11,O=C(NC(Cc1cc(=O)[nH]c2ccccc12)C(=O)O)c1ccc(Cl)cc1 (stereo not given),inactive
12,CC(C)OC(=O)C(C(=O)OC(C)C)=C1SC=CS1,inactive
13,C[C@@H]1COC(Nc2ccc3ncnc(Nc4ccc(OCc5nccs5)c(Cl)c4)c3c2)=N1,"inconclusive: 20.9 µM [cytotoxic, partial curve, poor fit]"
14,COc1ccc(S(=O)(=O)Nc2cc(-c3c(O)ccc4ccccc34)c(O)c3ccccc23)cc1,active: 16.6 µM
15,O=C1[C@H](Cc2ccc(O)cc2)N2C(=O)CCN(C(=O)NCc3ccccc3)[C@H]2CN1Cc1cccc2ccccc12,"inconclusive: 11.8 µM [cytotoxic, single point]"
16,CC1CNc2c(cccc2S(=O)(=O)N[C@@H](CCCN=C(N)N)C(=O)N2CC[C@@H](C)C[C@@H]2C(=O)O)C1 (stereo not given in full),inactive
17,CN(C)CCc1c[nH]c2ccc(C[C@H]3COC(=O)N3)cc12,active: 7.43 µM
18,CCn1c(-c2nonc2N)nc2cnc(Oc3cccc(NC(=O)c4ccc(OCCN5CCOCC5)cc4)c3)cc21,active: 9.35 µM
19,CNC(=O)c1cc(Oc2ccc(NC(=O)Nc3ccc(Cl)c(C(F)(F)F)c3)cc2)ccn1,"inconclusive: 29.6 µM [cytotoxic, single point]"
20,NC(=O)c1c(OCc2c(F)cc(Br)cc2F)nsc1NC(=O)NCCCCN1CCCC1,"inconclusive: 7.43 µM [cytotoxic, full curve]"

# Reformatted as tab-separated lines: entries from further up.
row	Compound	Potency
14	COc1ccc(S(=O)(=O)Nc2cc(-c3c(O)ccc4ccccc34)c(O)c3ccccc23)cc1	active: 16.6 µM
15	O=C1[C@H](Cc2ccc(O)cc2)N2C(=O)CCN(C(=O)NCc3ccccc3)[C@H]2CN1Cc1cccc2ccccc12	inconclusive: 11.8 µM [cytotoxic, single point]

# (cont.)

row,Compound,Potency
1,C[C@](N)(Cc1ccc(O)c(O)c1)C(=O)O,inactive
2,CCOc1cc(C=C2C(=O)N(c3ccccc3)N=C2C)cc(Cl)c1OCC(=O)OC,inactive
3,COc1ccc(-c2coc3cc(O)cc(O)c3c2=O)cc1,"inconclusive: 26.4 µM [cytotoxic, partial curve, poor fit]"
4,Cc1c(-c2ccnn2C)cc(C(=O)NCc2ccc(S(C)(=O)=O)cn2)c(=O)n1-c1cccc(C(F)(F)F)c1,inactive
5,Cc1cnc(Nc2cccc(CN3CCOCC3)c2)nc1Nc1cccc(S(=O)(=O)NC(C)(C)C)c1,"inconclusive: 2.64 µM [cytotoxic, full curve, poor fit]"
6,CCN(CC)CCCCNc1ncc2cc(-c3cc(OC)cc(OC)c3)c(NC(=O)NC(C)(C)C)nc2n1,"inconclusive: 23.5 µM [cytotoxic, partial curve]"
7,CCCCS(=N)(=O)CCC(N)C(=O)O (stereo not given),"inconclusive: 33.2 µM [cytotoxic, single point]"
8,CNCCCC12CCC(c3ccccc31)c1ccccc12,"inconclusive: 29.6 µM [cytotoxic, partial curve, poor fit]"
9,CCC[C@H](Nc1nc(-c2ccc(NC(=O)NCC)c(OC)c2)ncc1C)c1cccnc1,active: 0.0418 µM
10,N#Cc1ccc(NC(=O)Nc2ccccc2Br)c2n[nH]nc12,"inconclusive: 37.2 µM [cytotoxic, single point]"
11,OC(c1cc(C(F)(F)F)nc2c(C(F)(F)F)cccc12)C1CCCCN1 (stereo not given),"inconclusive: 37.2 µM [cytotoxic, partial curve, poor fit]"
12,CN(C)CC(=O)N1CCC(c2ccc(NC(=O)c3ncc(C#N)[nH]3)c(C3=CCCCC3)c2)CC1,inactive
13,COc1cc(C=CC(=O)O)ccc1O,inactive
14,O=C1c2c(O)cc(O)cc2O[C@H](c2cc(O)c(O)c(O)c2)[C@H]1O,"inconclusive: 23.5 µM [cytotoxic, single point]"
15,O=c1c(O)c(-c2ccc(O)cc2O)oc2cc(O)cc(O)c12,"inconclusive: 29.6 µM [cytotoxic, single point]"
16,CCc1cc(C(C)=NOCc2ccc(C3CCCCC3)c(C(F)(F)F)c2)ccc1CN1CC(C(=O)O)C1,active: 8.33 µM
17,Nc1ccc(C(=O)c2cc3c(ccc4ccccc43)[nH]2)cc1,active: 2.96 µM
18,COc1cc(S(C)(=O)=O)ccc1Nc1nc2ccc(-c3ccc(NC(=O)[C@H](C)c4ccc(F)cc4)cc3)cn2n1,"inconclusive: 0.933 µM [cytotoxic, full curve]"
19,COc1ccc2cc1Oc1ccc(cc1)C[C@H]1c3cc(c(OC)cc3CCN1C)Oc1c(OC)c(OC)cc3c1[C@H](C2)N(C)CC3,"inconclusive: 29.6 µM [cytotoxic, single point]"
20,CO[C@H]1C[C@@H]2CC[C@@H](C)[C@@](O)(O2)C(=O)C(=O)N2CCCC[C@@H]2C(=O)O[C@H]([C@H](C)C[C@@H]2CC[C@H](OP(C)(C)=O)[C@H](OC)C2)CC(=O)[C@H](C)C=C(C)[C@@H](O)[C@@H](OC)C(=O)[C@H](C)C[C@H](C)C=CC=CC=C1C,"inconclusive: 8.33 µM [cytotoxic, partial curve, poor fit]"
